Read-outs that look alike come from different tables or passages of the source.

Holding throughout (assay type): cell-based
In one test the test system is IL-15 signaling. Briefly: Whole blood assay IL-15 pSTAT5 CD3+. The procedure: (§1) Finally, compound potency in whole blood was measured against IL-6 signaling and against signaling by the common gamma chain cytokines IL-7 and IL-15 (Table 1A). […].
The next test relates to IL-6 signaling. Briefly: Whole blood assay IL-6 pSTAT3 CD14+. The procedure: as §1
Another test has as its system EPO (Erythroid CFU). Briefly: Erythroid bone marrow colony forming assay (EPO). Conditions: read-out: Colony Formation EPO (Erythroid CFU).
A further test concerns IL-7 signaling. The test can be described thus: Whole blood assay IL-7 pSTAT5 CD3+.

On to `C[C@@H]1CCN(C(=O)CC#N)C[C@@H]1N(C)c1ncnc2[nH]ccc12` [Tofacitinib, reference compound], for which the IC50 with IL-15 signaling (read-out: IL-15 (pSTAT5, CD3+)) was determined as 22 nM; with IL-15 signaling (whole blood, read-out: IC50 IL-15 pSTAT5 CD3+) it was 22 nM; in the test with IL-6 signaling (read-out: IL-6 (pSTAT3, CD14+)), 114 nM; in the test with IL-6 signaling (whole blood, read-out: IC50 IL-6 pSTAT3 CD14+), 114 nM; with EPO (Erythroid CFU), 800 nM; with IL-7 signaling, 31 nM.

(Values after patent US20150118229A1, “JAK1 SELECTIVE INHIBITOR AND USES THEREOF” (ABBVIE INC., priority 2013, published 2015).)
